# Assay results published in patent US20060257411A1 (priority 2005, published 2006).
# At least one compound was matched to its structure with a doubt left.
# Test system: peritoneal macrophages
# Format: cell-based, mouse
smiles,measurement,value
CCOCc1nc2c(N)nc3ccccc3c2n1CC(C)(C)O [Resiquimod],TNF production in response to inducer,normal
